Some entries share one result that the patent states for a list of compounds. At least one structure is not confirmed: it was looked up by name or label, or the drawing left a doubt.
Test: Hygroscopicity / water adsorption (thermogravimetry, TG-FTIR)
Format: physicochemical
Details: exposed to open air humidity at ambient temperature
Procedure: 1.05 gram of (6R)-L-erythro-tetrahydrobiopterin dihydrochloride are dissolved in 4.0 ml of bi-distilled water at 23±2° C. The solution is filtrated through a 0.22 μm millipore filtration unit and the filtrate is transferred into a 250 ml round flask. The solution in this flask is frozen by placing the flask into a bed with solid carbon dioxide at −78° C. The flask with the frozen content is then connected to a laboratory freeze dryer operating at a starting pressure of about 0.05 mbar. After about 20 hours the freeze drying is complete and the vacuum flask is disconnected from the freeze dryer and about 1.0 g of white, crystalline solid material is obtained. […] The sample begins to decompose above 200° C. TG-FTIR: Thermogravimetric measurements are carried out with a Netzsch Thermo-Micro-balance TG 209 coupled to a Bruker FTIR Spectrometer Vector 22 (sample pans with a pinhole, N2 atmosphere, heating rate 10 K/min).

Water absorbed, up to 3 % by weight:
C[C@H](O)[C@H](O)[C@H]1CNc2nc(N)[nH]c(=O)c2N1.Cl.Cl [form A, (6R)-L-erythro-tetrahydrobiopterin dihydrochloride]
C[C@H](O)[C@H](O)[C@H]1CNc2nc(N)[nH]c(=O)c2N1.Cl.Cl [form B, (6R)-L-erythro-tetrahydrobiopterin dihydrochloride]
C[C@H](O)[C@H](O)[C@H]1CNc2nc(N)[nH]c(=O)c2N1.Cl.Cl [form F, (6R)-L-erythro-tetrahydrobiopterin dihydrochloride]

Source: patent US8344139B2, “Process for preparing crystalline polymorphic forms of (6R)-L-erythro-tetrahydrobiopterin dihydrochloride” (Merck Eprova AG, priority 2003, dated 2013)
